The text below walks through data of doi:10.1101/2024.03.08.584044.

Results are given in words; binding and its absence hold for the method and conditions named. Binding seen in cells or lysates may run through a third protein. A result given as binding can be weak or reduced; the word gives no strength.

In the experiment the target is Exo70 (endogenous, MDBK cells) (bovine (endogenous in MDBK)). As to the kind of experiment: co-IP.

B1: Rab11a (endogenous, MDBK cells) (protein, UniProt Q2TA29 1-216)
chain: MGTRDDEYDYLFKVVLIGDSGVGKSNLLSRFTRNEFNLESKSTIGVEFATRSIQVDGKTIKAQIWDTAGQERYRAITSAYYRGAVGALLVYDIAKHLTYENVERWLKELRDHADSNIVIMLVGNKSDLRHLRAVPTDEARAFAEKNGLSFIETSALDYTNVEAAFQTILTEIYRIVSQKQMSDRRENDMSPSNNVVPIHVPPTTENKPKVQCCQNI
Turning to B1, the binding entry is reported as “binds”.
